These are yes or no findings as the source states them, for the method shown. In cells and extracts the contact can be indirect. Some results given as binding are weak or reduced against the parent protein; the word gives no strength.
How the values were obtained:
[1] = target: TRAM^FLAG (TRIF-related adapter molecule with C-terminal FLAG), human (human) (UniProt Q86XR7); assay: co-IP; HEK 293T co-transfected for 48 h; lysis in 150 mM NaCl, 50 mM Tris–HCl pH 8.0, 1 mM EDTA, 1% NP40; anti-FLAG M2 agarose at +4°C for 4 h (legend of Figure 4: 3 h); Western blot; in Figures 4 and 7D,E cells treated with 30 μM C3-Pen or P7-Pen for 1 h before lysis
[2] = target: TIRAP, endogenous in primary human monocytes (human (endogenous in primary monocytes)) (UniProt P58753); assay: co-IP; endogenous IPs from lysates of primary human monocytes (untreated or LPS 100 ng/ml; pretreated with 15 μM C3-Pen or P7-Pen): anti-IRAK1, anti-IRAK4 or anti-TIRAP antibodies covalently coupled to Dynabeads, +4°C, 4 h; Western blot
[3] = target: IRAK1, endogenous in primary human monocytes (human (endogenous in primary monocytes)) (UniProt P51617); assay: as above
[4] = target: TLR4^FLAG in THP-1 TLR4^FLAG cells (UniProt O00206); assay: co-IP; anti-FLAG IPs from lysates of THP-1 TLR4^FLAG cells pretreated with 15 μM C3-Pen or P7-Pen and stimulated by LPS (100 ng/ml); Western blot
[5] = target: TLR4^FLAG (HEK 293T overexpression) (human) (UniProt O00206); assay: co-IP; HEK 293T co-transfected for 48 h; lysis in 150 mM NaCl, 50 mM Tris–HCl pH 8.0, 1 mM EDTA, 1% NP40; anti-FLAG M2 agarose at +4°C for 4 h (legend of Figure 4: 3 h); Western blot; in Figures 4 and 7D,E cells treated with 30 μM C3-Pen or P7-Pen for 1 h before lysis

The chains behind the UniProt entries cited, without tags or fusion partners. Residues count along the entry.
UniProt Q86XR7: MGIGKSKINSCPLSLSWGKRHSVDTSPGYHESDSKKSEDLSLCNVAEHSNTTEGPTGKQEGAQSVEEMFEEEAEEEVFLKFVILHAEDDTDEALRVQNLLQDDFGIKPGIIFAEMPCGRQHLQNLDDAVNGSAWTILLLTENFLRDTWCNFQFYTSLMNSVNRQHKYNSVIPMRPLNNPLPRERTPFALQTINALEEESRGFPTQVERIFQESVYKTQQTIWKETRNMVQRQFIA
UniProt P58753: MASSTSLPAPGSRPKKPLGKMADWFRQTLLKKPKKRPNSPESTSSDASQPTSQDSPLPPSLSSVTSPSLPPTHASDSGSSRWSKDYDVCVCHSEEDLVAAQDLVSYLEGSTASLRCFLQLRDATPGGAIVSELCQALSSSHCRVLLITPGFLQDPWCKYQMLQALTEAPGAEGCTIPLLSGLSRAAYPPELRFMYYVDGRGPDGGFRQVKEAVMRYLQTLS
UniProt P51617: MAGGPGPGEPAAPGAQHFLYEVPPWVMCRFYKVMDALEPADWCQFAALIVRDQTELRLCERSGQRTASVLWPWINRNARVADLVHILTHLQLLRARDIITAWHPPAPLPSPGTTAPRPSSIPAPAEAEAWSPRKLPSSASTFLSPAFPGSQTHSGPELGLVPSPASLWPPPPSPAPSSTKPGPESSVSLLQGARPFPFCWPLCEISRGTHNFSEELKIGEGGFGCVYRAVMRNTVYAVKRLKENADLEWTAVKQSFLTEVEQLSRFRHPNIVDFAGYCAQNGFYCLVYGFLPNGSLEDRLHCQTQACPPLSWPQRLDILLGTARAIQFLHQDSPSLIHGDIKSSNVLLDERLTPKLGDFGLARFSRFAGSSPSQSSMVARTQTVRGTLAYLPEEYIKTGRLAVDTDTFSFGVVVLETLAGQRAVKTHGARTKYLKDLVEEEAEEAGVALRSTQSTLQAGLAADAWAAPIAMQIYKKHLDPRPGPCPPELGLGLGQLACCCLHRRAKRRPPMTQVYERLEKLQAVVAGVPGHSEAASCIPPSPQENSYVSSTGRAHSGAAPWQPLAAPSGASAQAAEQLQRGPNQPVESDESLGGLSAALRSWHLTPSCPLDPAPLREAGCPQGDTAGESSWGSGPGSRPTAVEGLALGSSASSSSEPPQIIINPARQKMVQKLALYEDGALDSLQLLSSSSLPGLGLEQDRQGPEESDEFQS
UniProt O00206, residues 24-839: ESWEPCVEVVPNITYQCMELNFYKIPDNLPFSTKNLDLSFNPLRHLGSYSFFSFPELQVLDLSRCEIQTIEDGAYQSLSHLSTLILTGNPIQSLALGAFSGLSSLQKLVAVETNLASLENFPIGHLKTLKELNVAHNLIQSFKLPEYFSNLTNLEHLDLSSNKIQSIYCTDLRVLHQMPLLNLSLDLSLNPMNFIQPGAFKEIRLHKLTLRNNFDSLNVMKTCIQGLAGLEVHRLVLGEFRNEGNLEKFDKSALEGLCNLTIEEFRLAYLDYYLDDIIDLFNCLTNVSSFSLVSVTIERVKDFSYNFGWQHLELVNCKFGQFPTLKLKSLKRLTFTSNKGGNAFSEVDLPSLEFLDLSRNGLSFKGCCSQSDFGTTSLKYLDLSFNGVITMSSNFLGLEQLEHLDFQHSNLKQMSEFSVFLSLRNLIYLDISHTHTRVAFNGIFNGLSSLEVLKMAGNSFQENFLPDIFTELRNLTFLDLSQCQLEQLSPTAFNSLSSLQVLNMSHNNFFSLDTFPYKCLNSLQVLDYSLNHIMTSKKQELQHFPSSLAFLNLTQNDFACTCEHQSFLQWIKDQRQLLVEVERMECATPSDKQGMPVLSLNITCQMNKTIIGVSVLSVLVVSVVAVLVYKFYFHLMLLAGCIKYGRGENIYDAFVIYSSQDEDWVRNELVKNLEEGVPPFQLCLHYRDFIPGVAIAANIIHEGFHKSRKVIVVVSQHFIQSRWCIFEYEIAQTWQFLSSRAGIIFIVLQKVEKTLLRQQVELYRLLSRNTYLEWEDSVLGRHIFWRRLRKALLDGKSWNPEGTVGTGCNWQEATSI
UniProt Q7L804: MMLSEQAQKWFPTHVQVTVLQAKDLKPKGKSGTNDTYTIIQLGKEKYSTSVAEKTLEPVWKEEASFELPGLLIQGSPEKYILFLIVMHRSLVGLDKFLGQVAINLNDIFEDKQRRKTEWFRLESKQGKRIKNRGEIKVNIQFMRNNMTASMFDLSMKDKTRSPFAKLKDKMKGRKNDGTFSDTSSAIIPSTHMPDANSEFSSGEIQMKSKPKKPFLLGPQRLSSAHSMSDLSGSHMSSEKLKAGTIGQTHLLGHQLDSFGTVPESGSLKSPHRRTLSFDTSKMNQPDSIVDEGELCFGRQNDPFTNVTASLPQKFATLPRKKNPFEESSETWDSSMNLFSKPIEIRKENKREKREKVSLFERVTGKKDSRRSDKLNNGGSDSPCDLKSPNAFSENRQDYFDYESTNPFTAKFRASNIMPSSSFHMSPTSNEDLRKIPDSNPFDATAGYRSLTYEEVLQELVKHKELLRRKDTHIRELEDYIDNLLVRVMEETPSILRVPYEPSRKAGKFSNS
UniProt Q99836: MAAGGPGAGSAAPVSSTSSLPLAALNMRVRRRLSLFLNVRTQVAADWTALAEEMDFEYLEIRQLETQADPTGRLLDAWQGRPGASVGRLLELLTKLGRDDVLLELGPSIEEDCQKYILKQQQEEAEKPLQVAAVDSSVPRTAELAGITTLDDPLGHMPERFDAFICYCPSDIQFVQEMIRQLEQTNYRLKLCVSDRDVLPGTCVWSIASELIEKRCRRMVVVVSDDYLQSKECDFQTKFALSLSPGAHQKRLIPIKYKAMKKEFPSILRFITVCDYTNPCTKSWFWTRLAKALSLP
UniProt Q8IUC6: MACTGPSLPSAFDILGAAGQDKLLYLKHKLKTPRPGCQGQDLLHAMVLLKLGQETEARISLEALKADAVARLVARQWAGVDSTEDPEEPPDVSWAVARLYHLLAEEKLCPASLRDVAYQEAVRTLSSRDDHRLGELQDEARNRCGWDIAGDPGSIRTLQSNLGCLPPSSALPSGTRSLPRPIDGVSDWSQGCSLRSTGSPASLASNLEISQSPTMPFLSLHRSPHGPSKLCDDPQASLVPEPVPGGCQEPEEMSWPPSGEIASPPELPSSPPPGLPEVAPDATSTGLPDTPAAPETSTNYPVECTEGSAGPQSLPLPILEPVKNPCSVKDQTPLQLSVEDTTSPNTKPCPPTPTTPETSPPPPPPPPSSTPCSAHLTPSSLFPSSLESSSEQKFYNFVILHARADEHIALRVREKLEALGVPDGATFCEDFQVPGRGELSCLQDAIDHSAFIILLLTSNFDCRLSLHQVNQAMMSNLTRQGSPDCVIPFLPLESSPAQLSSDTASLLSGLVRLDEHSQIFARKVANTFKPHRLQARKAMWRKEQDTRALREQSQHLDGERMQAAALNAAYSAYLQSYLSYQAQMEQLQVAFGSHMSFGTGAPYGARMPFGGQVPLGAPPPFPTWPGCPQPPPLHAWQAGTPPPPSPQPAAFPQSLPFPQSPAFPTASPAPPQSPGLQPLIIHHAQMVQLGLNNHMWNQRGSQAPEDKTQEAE

“FIP2^EGFP (Rab11 family interacting protein 2) (from UniProt Q7L804 1-512)” was tested, and the binding [1] was “binds”.

For “IRAK1, endogenous in primary human monocytes (from UniProt P51617 1-712) (enzyme)”, the binding [2] was “binds”.

In the case of “MyD88, endogenous in primary human monocytes (from UniProt Q99836 1-296)”, the binding [3] is reported as “binds”.

For “TIRAP, endogenous in THP-1 TLR4^FLAG cells (from UniProt P58753 1-221)”, the binding [4] was “binds”.

TIRAP^HA (from UniProt P58753 1-221) was tested, and the binding [5] was “binds”.

In the case of TRAM^YFP (from UniProt Q86XR7 1-235), the binding [5] is reported as “binds”.

TRIF^HA (from UniProt Q8IUC6 1-712) was tested, and the binding [1] was “binds”.
